From article PMC10561725 come the findings set out here.

Amino acid sequences for entries named in this document (tags omitted).
UniProt P11940: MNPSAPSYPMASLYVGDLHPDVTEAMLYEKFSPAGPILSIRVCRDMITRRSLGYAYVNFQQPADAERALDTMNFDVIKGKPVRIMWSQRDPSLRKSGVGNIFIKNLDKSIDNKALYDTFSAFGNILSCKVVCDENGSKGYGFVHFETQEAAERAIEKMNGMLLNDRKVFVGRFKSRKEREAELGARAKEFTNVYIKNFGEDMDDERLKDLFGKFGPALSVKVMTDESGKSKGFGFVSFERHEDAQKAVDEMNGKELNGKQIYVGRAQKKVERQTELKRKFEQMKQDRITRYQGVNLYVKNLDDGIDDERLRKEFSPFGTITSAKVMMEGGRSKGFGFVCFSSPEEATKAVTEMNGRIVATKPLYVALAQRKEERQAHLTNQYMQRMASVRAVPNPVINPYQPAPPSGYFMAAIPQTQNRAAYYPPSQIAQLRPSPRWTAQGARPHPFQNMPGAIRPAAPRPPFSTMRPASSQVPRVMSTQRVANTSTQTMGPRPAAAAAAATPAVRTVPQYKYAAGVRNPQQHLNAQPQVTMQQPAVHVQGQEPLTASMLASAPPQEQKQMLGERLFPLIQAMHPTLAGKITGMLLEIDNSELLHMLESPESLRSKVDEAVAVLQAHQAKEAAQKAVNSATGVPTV
UniProt O15047: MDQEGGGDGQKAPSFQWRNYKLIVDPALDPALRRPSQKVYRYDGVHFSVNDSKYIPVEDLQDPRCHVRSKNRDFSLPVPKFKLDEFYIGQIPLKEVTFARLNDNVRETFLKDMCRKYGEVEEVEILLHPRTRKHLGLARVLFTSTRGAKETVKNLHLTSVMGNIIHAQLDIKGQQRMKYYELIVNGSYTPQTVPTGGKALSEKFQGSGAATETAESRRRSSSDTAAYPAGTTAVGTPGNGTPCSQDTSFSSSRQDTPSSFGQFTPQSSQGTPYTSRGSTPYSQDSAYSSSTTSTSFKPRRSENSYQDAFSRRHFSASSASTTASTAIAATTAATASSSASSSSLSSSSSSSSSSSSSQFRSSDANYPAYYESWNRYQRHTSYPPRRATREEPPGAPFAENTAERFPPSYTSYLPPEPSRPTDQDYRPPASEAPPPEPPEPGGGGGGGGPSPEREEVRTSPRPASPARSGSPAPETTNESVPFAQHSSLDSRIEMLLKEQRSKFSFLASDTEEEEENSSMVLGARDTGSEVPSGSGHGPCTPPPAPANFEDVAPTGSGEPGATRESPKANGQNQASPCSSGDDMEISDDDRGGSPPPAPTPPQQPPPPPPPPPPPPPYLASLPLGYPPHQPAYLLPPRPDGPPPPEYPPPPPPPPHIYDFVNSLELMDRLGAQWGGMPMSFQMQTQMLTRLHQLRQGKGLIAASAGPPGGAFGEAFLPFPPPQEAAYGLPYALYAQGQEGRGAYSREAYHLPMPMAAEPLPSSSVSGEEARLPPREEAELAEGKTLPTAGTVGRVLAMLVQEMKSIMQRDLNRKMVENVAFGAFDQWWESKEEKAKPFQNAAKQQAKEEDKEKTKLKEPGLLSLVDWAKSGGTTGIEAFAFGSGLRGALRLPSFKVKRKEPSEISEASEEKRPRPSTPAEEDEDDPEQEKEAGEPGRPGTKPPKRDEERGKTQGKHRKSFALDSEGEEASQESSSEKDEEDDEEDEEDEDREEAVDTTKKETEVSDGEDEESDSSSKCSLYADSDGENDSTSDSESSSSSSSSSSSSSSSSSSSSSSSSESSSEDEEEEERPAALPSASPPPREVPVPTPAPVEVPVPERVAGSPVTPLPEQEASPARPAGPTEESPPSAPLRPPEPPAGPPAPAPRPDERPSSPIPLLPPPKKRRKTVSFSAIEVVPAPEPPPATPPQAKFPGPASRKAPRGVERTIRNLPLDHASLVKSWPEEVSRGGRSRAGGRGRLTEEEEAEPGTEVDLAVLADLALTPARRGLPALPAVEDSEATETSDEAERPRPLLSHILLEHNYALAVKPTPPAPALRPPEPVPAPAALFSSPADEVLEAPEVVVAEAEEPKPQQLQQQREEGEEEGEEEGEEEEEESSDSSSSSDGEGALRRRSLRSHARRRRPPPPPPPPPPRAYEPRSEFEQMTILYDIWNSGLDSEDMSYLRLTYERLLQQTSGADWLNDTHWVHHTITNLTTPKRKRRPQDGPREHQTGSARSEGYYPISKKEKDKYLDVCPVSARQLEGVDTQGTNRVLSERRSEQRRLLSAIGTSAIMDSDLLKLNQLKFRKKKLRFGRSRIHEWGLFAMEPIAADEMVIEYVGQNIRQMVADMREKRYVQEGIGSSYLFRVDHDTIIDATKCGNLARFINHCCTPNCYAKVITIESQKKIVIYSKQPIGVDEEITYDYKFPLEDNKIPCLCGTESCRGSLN

In the assay the target is FLAG-tagged polyadenylate-binding protein cytoplasmic 1 (UniProt P11940). As to the kind of experiment: affinity purification with mass spectrometry; PLC cells transduced with FLAG-tagged PABPC1 vector or empty vector; NP-40 buffer (150 mM NaCl, 1.5 mM MgCl2, 0.5% NP-40, 50 mM Tris-HCl pH 8.0); anti-FLAG antibody, Protein A magnetic beads, 4°C overnight; interacting proteins identified by MS.

These are yes or no findings as the source states them, for the method shown. In cells and extracts the contact can be indirect. A yes stands for co-enrichment or nearness to the bait. Other partners may have been found.

As to “SET domain containing 1A (from UniProt O15047 1-1707)”, the binding result is given as “binds”.
